Some of the results follow.
compound: c1cn2cc(-c3ccc4cn[nH]c4c3)nc(Nc3ccc(N4CCOCC4)cc3)c2n1 [entospletinib]; assay: log2 fold change, soluble protein after heating vs DMSO (PISA); higher = thermal stabilisation; K562 cells, 10 uM, 30 min; active = over 0.2 and 3.5 SD of the protein, either way, in both replicates (recomputed)
In short: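 K562 cells at 2×10^6 cells/mL were treated with 10 μM compound for 30 min. Aliquots were heated for 3 min across 48°C-58°C, pooled, and extracted in PBS with 0.5% NP-40 at 4°C; soluble protein was the supernatant after 21,000xg for 90 min. Soluble protein was quantified by TMTpro 16plex LC-MS/MS with channel sums equalised, and reported as log2 fold change in thermal stability against DMSO controls, with values from duplicates.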

Amino acid sequences for entries named in this document (tags omitted). A change or cut given only in a name is not applied to a line headed by its entry.
UniProt Q9H4M9: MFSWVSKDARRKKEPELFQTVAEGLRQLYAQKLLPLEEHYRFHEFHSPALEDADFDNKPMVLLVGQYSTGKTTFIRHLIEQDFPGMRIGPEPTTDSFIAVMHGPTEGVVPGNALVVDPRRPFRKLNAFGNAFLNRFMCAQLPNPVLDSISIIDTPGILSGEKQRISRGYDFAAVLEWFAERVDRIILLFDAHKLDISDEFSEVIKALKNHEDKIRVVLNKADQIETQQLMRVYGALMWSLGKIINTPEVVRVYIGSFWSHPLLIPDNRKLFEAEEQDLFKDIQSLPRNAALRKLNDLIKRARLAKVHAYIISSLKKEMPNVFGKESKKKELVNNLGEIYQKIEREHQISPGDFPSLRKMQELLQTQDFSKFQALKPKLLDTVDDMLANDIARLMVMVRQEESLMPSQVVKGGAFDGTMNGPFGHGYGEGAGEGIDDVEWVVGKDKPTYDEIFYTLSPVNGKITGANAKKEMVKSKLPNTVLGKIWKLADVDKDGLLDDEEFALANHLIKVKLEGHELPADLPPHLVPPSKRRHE
UniProt Q9P2K8: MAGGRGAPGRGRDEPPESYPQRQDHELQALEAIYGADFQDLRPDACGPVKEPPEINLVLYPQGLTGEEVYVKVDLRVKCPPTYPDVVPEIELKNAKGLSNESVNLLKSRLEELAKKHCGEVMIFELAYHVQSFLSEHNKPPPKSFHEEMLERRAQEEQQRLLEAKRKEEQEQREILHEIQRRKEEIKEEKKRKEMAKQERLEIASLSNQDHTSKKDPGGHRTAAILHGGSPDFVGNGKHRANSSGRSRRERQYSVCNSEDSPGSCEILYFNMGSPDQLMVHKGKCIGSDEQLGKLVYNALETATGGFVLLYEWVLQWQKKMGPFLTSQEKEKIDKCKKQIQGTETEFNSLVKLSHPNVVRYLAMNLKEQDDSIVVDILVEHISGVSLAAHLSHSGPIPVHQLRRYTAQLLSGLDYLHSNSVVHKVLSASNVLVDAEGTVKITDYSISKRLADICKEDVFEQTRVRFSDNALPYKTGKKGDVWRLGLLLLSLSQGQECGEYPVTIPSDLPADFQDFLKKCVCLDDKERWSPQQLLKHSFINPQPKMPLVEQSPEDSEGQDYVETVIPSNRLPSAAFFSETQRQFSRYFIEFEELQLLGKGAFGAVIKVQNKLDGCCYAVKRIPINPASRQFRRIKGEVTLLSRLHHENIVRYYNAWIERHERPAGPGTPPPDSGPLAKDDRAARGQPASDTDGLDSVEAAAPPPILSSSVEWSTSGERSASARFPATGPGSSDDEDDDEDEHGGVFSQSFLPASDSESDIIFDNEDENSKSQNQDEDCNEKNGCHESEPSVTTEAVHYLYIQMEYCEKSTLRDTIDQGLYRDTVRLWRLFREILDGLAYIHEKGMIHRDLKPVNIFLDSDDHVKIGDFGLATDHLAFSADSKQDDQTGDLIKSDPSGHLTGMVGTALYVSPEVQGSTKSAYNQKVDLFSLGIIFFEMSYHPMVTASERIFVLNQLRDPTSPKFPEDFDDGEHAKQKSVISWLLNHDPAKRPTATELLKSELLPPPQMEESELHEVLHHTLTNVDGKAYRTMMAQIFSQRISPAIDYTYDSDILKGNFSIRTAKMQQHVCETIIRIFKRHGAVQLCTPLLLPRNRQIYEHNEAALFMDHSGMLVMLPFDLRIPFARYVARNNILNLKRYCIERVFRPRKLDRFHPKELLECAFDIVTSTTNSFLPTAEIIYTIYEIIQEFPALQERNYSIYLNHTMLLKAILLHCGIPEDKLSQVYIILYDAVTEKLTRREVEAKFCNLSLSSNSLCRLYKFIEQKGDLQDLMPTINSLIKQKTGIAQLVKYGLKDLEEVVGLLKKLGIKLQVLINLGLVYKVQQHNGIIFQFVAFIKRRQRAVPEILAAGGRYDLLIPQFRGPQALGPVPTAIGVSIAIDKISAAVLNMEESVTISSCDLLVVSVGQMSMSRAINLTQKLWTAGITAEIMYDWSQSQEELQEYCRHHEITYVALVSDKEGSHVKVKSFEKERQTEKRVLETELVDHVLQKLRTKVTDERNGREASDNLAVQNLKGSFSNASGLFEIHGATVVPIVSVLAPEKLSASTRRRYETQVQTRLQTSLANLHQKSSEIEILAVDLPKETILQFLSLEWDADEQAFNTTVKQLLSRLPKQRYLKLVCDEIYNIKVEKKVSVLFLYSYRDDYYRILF
UniProt O15372, whole entry, looked up: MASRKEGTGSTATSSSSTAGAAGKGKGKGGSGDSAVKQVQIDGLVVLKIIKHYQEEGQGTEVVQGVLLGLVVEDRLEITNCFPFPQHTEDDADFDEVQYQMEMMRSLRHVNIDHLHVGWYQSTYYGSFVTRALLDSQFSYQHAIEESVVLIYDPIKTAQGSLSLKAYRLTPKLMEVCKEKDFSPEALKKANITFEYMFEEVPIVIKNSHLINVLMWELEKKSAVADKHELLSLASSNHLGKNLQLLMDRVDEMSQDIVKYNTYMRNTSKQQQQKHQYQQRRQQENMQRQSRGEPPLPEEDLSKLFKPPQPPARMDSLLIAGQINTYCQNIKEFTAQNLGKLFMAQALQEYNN
UniProt Q96EB1: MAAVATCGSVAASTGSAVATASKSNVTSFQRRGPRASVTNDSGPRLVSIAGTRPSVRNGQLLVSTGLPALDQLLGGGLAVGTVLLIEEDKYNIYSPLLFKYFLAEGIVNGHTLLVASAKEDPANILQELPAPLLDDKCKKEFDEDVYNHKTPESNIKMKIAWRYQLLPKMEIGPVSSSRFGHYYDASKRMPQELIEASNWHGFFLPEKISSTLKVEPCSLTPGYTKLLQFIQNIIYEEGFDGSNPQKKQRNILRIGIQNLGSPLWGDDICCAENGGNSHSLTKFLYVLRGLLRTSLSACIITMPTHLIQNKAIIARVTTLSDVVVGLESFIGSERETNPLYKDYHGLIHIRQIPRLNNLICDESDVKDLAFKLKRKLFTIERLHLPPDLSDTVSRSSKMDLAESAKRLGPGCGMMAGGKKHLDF
UniProt Q0PNE2: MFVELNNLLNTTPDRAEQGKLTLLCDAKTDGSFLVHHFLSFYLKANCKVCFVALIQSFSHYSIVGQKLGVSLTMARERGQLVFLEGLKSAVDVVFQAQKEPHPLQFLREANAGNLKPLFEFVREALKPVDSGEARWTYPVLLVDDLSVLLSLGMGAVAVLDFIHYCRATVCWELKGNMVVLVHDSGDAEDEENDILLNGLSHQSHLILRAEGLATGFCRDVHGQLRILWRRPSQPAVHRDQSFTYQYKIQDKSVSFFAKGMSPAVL
UniProt Q9H0I2: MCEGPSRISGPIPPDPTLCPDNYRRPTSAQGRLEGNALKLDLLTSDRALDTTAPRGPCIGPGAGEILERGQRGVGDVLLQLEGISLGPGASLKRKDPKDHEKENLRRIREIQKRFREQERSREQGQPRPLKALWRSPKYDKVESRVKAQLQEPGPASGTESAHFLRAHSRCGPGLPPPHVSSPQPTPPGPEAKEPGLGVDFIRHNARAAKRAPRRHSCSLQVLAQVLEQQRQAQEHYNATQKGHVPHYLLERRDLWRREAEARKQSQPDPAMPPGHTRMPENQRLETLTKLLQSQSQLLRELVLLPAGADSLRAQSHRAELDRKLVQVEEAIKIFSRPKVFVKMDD
UniProt Q7L5Y1: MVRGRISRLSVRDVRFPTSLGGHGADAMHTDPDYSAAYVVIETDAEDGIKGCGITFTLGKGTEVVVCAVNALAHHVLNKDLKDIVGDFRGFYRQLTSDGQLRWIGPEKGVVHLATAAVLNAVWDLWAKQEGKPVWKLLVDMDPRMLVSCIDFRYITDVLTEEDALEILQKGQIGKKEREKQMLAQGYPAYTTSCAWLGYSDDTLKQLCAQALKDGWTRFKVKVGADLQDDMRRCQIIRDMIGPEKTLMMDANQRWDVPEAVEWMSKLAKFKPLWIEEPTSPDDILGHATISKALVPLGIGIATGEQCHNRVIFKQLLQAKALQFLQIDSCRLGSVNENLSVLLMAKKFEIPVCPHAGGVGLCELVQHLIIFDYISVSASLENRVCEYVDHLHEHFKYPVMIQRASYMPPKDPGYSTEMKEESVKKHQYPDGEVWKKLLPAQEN
UniProt Q13347, whole entry, looked up: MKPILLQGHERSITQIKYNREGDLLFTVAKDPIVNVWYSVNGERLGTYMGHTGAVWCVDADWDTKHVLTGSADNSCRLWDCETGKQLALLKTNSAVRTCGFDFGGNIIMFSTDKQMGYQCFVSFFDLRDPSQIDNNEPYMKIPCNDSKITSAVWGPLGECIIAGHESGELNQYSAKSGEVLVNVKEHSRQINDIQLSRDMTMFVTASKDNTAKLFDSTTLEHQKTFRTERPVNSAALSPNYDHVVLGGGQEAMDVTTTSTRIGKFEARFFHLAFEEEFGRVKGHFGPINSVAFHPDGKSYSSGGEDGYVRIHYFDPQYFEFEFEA
UniProt P38919, whole entry, looked up: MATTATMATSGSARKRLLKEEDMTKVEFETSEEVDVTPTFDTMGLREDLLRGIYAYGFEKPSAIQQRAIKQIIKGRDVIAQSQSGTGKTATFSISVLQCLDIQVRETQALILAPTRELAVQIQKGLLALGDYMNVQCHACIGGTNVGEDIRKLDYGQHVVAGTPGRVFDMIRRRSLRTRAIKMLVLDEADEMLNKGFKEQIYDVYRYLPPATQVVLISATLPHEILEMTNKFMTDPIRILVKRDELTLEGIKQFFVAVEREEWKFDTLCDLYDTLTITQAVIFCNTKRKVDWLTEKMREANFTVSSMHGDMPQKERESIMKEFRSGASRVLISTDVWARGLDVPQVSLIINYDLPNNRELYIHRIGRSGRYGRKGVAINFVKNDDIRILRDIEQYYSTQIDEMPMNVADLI
UniProt Q9NRA8: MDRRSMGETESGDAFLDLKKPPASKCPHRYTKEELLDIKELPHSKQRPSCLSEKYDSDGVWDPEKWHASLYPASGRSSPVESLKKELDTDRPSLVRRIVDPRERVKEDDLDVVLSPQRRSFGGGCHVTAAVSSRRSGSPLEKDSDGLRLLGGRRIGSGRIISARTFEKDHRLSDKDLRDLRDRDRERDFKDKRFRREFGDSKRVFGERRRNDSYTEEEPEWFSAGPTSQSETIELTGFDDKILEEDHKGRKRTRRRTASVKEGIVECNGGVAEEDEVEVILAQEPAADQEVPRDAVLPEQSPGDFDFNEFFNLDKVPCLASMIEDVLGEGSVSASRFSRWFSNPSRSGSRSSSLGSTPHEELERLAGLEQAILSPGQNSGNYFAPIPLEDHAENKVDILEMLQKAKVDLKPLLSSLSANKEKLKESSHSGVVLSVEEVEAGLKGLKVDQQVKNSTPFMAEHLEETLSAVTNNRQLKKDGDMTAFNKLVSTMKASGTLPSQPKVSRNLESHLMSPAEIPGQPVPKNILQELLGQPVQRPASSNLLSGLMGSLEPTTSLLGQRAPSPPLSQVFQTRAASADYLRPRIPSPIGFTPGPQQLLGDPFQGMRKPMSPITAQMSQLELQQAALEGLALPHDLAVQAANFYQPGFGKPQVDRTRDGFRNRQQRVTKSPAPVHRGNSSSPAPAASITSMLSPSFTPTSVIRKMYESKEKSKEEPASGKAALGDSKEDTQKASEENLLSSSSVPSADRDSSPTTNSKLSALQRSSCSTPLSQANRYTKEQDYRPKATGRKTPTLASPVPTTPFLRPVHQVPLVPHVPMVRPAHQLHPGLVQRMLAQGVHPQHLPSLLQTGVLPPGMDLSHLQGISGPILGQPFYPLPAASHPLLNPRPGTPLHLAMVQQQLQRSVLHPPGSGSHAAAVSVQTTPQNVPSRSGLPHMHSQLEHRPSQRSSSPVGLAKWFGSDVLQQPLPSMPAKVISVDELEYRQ
UniProt O15371, whole entry, looked up: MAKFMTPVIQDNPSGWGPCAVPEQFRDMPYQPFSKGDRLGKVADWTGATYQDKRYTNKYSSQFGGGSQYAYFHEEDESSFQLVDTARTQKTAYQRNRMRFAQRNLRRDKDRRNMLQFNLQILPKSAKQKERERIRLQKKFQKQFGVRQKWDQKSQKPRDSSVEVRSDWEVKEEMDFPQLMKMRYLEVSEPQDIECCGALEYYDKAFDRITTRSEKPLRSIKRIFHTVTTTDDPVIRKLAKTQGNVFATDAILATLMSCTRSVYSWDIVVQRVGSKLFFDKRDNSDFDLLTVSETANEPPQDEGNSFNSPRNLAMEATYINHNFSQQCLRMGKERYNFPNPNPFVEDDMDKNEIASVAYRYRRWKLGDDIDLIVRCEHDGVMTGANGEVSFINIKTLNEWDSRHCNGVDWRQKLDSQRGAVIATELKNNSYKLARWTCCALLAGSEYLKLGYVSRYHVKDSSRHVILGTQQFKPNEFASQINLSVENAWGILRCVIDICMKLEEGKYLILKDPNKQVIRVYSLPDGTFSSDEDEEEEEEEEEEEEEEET

log2 fold change, inactive:
EML2 isoform 3 (UniProt O95834) 0.016, ELOB (UniProt Q15370) 0.025, EHD1 (UniProt Q9H4M9) -0.021, ELOF1 (UniProt P60002) 0.089, EIF4H (UniProt Q15056) 0.003, EIF1 (UniProt P41567) 0.001, ENTPD4 (UniProt Q9Y227) -0.244, ELP3 (UniProt Q9H9T3) -0.002, EIF2B4 (UniProt Q9UI10) 0.214, EML3 (UniProt Q32P44) 0.28, ENO1 isoform 2 (UniProt P06733) -0.067, EHHADH (UniProt Q08426) -0.038, EIF2AK4 (UniProt Q9P2K8) -0.043, EIF2B2 (UniProt P49770) 0.04, EIF5 (UniProt P55010) 0.007, ENDOD1 (UniProt O94919) 0.052, EIF3E (UniProt P60228) 0.12, EIF3H (UniProt O15372) 0.019, EMG1 (UniProt Q92979) 0.048, EP300 (UniProt Q09472) 0.046, ELP4 (UniProt Q96EB1) -0.027, EIF3M (UniProt Q7L2H7) 0.021, ELP6 (UniProt Q0PNE2) -0.006, EIF2S2 (UniProt P20042) 0.006, ENKD1 (UniProt Q9H0I2) -0.013, EMC8 (UniProt O43402) 0.025, ENOSF1 (UniProt Q7L5Y1) 0.041, EIF6 (UniProt P56537) -0.007, EMC3 (UniProt Q9P0I2) -0.023, EIF4B (UniProt F8VP89) 0.016, EIF3I (UniProt Q13347) 0.08, EIF4A3 (UniProt P38919) 0.089, EIF2A (UniProt Q9BY44) 0.02, EIF4ENIF1 isoform 3 (UniProt Q9NRA8) 0.025, EIF3D (UniProt O15371) 0.079, ENO1 (UniProt P06733) 0.022

From the supplement of paper PMC10849652
